Test results taken from PubChem BioAssay AID2685 (National Center for Advancing Translational Sciences (NCATS), 2010).
This is one part of the list. These are further read-outs of the screen, such as a control signal, another cell line or another target. No call is given for them. Compounds called inactive in the main read-out are mostly missing here. The note in brackets gives the kind of curve behind each potency; many fits are weak.

Assay: qHTS Assay for Lipid Storage Modulators in Drosophila S3 Cells;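 for cell number change: cells counted by Cell Tracker Red CMTPX staining in the red channel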
Details: BODIPY lipid droplet fluorescence, 18-24 h; for cell number change: measured here: cell count max response, cells fed with added oleic acid
Summary of the method: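 Laser-scanning cytometry quantifies lipid droplet accumulation (500–530 nm total intensity; droplet/cell object ratio) in oleic acid-fed (400 uM added) Drosophila S3 cells treated with a concentration series. 20 uM Triacsin C defined 100% inhibition.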

[1] = measured here: lipid fluorescence (Fed channel) AC50, cells fed with added oleic acid
[2] = measured here: cell number channel AC50, cells fed with added oleic acid

| Structure (SMILES) | cell number change | AC50 [1] | AC50 [2] |
| --- | --- | --- | --- |
| O=C(c1cccc(S(=O)(=O)NCc2ccccc2)c1)N1CCN(c2cccc(C(F)(F)F)c2)CC1 | 0.242% | 29.1 µM [falling, single point] |  |
| Nc1ccc(CSc2ccc(Cl)cc2)cc1 | 26.5% | 6.51 µM [falling, single point] |  |
| Cc1ccccc1OCC(=O)OC(C)CN1CCN(C)CC1 (centres undefined) | 10.2% |  |  |
| CCCCOc1ccc(Cc2n[nH]c(=S)n2N)cc1 | -11.7% |  |  |
| O=[N+]([O-])c1ccc(N2CCN(c3nc(-c4ccc(Cl)cc4)cs3)CC2)cc1 | 16.6% | 0.92 µM [falling, single point] |  |
| Cn1cccc1C(=O)NNC(=O)COc1ccc(C#N)cc1 | -14.9% |  |  |
| O=C(Cc1ccc(Br)cc1)NCCCn1ccnc1 | 40.7% |  | 13 µM [rising, partial curve, poor fit] |
| COc1ccc(C(=O)c2ccc(Cl)cc2)cc1 | 15.5% |  |  |
| Cc1ccc(C(=O)Nc2cc(Cl)ccc2-n2cncn2)s1 |  | 0.00461 µM [rising, full curve, poor fit] | 0.00461 µM [rising, full curve, poor fit] |
| O=S(=O)(NNc1ccc(Cl)nn1)c1ccc(F)cc1 | 58.6% | 16.4 µM [rising, partial curve] | 18.4 µM [rising, single point] |
| COc1ccc2c(c1)N1CCN=C1N2C | 0.336% |  |  |
| Cc1cc(C)c(C#N)c(SCCS(=O)(=O)c2ccc(Cl)cc2)n1 | 8.92% | 3.66 µM [rising, single point] |  |
| O=C(CCc1c[nH]c2ccccc12)NCCc1ccc2c(c1)OCCO2 | 5.13% | 5.17 µM [falling, single point] |  |
| CCCCN(Cc1ccco1)C(=O)Cn1ncc2c(=O)oc3ccc(C)cc3c21 | 29.8% |  | 0.206 µM [rising, full curve, poor fit] |
| COc1ccc(OC(C)C(=O)Nc2cccc(F)c2)cc1 (centres undefined) | 6.99% | 14.6 µM [rising, partial curve, poor fit] |  |
| CCOc1ccc(C(=O)Nc2cccc(-c3nc4ccccc4[nH]3)c2C)cc1[N+](=O)[O-] | -33.6% | 7.31 µM [falling, partial curve, poor fit] | 1.46 µM [falling, partial curve, poor fit] |
| CCCn1c(SCC(=O)Nc2ccccc2-c2ccccc2)nnc1-c1ccoc1C | -0.612% | 2.06 µM [rising, partial curve] |  |
| COCCN(C(=O)c1snc(C(N)=O)c1N)C(C(=O)NC1CCCCC1)c1ccc(F)cc1 (centres undefined) | -13.9% |  |  |
| O=C(NNC(=O)c1cccc2ccccc12)c1ccco1 | 10.3% | 29.1 µM [rising, single point] |  |
| COc1ccccc1/C=C(/C(=O)OCC(N)=O)c1ccccc1 | 40.7% | 29.1 µM [rising, single point] | 32.6 µM [rising, single point] |
| COc1ccc(CNC(=O)C(=O)NCC2CCCO2)cc1 (centres undefined) | 18.2% | 2.06 µM [falling, partial curve] |  |
| COc1ccc2cc(CN(CCCN3CCOCC3)Cc3nnnn3C3CCCCC3)c(=O)[nH]c2c1 | -31.7% |  | 5.17 µM [falling, full curve, poor fit] |

Structural class: the compounds so far with nitrogen in an aromatic ring.

| Structure (SMILES) | cell number change | AC50 [1] | AC50 [2] |
| --- | --- | --- | --- |
| CCCCOc1ccc(Cc2n[nH]c(=S)n2N)cc1 | -11.7% |  |  |
| O=[N+]([O-])c1ccc(N2CCN(c3nc(-c4ccc(Cl)cc4)cs3)CC2)cc1 | 16.6% | 0.92 µM [falling, single point] |  |
| Cn1cccc1C(=O)NNC(=O)COc1ccc(C#N)cc1 | -14.9% |  |  |
| O=C(Cc1ccc(Br)cc1)NCCCn1ccnc1 | 40.7% |  | 13 µM [rising, partial curve, poor fit] |
| Cc1ccc(C(=O)Nc2cc(Cl)ccc2-n2cncn2)s1 |  | 0.00461 µM [rising, full curve, poor fit] | 0.00461 µM [rising, full curve, poor fit] |
| O=S(=O)(NNc1ccc(Cl)nn1)c1ccc(F)cc1 | 58.6% | 16.4 µM [rising, partial curve] | 18.4 µM [rising, single point] |
| Cc1cc(C)c(C#N)c(SCCS(=O)(=O)c2ccc(Cl)cc2)n1 | 8.92% | 3.66 µM [rising, single point] |  |
| O=C(CCc1c[nH]c2ccccc12)NCCc1ccc2c(c1)OCCO2 | 5.13% | 5.17 µM [falling, single point] |  |
| CCCCN(Cc1ccco1)C(=O)Cn1ncc2c(=O)oc3ccc(C)cc3c21 | 29.8% |  | 0.206 µM [rising, full curve, poor fit] |
| CCOc1ccc(C(=O)Nc2cccc(-c3nc4ccccc4[nH]3)c2C)cc1[N+](=O)[O-] | -33.6% | 7.31 µM [falling, partial curve, poor fit] | 1.46 µM [falling, partial curve, poor fit] |
| CCCn1c(SCC(=O)Nc2ccccc2-c2ccccc2)nnc1-c1ccoc1C | -0.612% | 2.06 µM [rising, partial curve] |  |
| COCCN(C(=O)c1snc(C(N)=O)c1N)C(C(=O)NC1CCCCC1)c1ccc(F)cc1 (centres undefined) | -13.9% |  |  |
| COc1ccc2cc(CN(CCCN3CCOCC3)Cc3nnnn3C3CCCCC3)c(=O)[nH]c2c1 | -31.7% |  | 5.17 µM [falling, full curve, poor fit] |

Going on with the list.

| Structure (SMILES) | cell number change | AC50 [1] | AC50 [2] |
| --- | --- | --- | --- |
| CCCCNC(=O)CSc1nc2ccsc2c(=O)n1CCCC(=O)NCCc1ccc(S(N)(=O)=O)cc1 | -35% | 29.1 µM [falling, single point] | 29.1 µM [falling, single point] |
| S=C(Nc1ccc(Cl)cc1)N(CCCN1CCOCC1)Cc1cccs1 | 13% | 20.6 µM [rising, partial curve] |  |
| CC(C(=O)Nc1ccc(S(=O)(=O)N2CCCC2)cc1)N1CCc2ccccc2C1 (centres undefined) | -25.9% | 23.1 µM [falling, partial curve] |  |
| Cc1cc(N2CC(C)OC(C)C2)nc2ccccc12 (centres undefined) |  | 0.0517 µM [rising, full curve, poor fit] |  |
| O=[N+]([O-])c1ccc(C2=Nn3cnnc3SC2)cc1 | -18.2% |  | 1.84 µM [falling, partial curve] |
| NC(=O)CC(NC(=O)OCc1ccccc1)C(=O)O (centres undefined) | 12.3% |  |  |
| CSc1ncc(Cl)c(C(=O)Nc2ccccc2[N+](=O)[O-])n1 | -8.07% | 29.1 µM [falling, single point] |  |
| OCCC1CCCCN1CC(O)COCc1ccc(Cl)cc1 (centres undefined) | -5.22% | 6.51 µM [rising, single point] |  |
| O=C(Nc1ccc(F)cc1)Nc1nnc(Cc2ccccc2F)s1 | -0.88% | 11.6 µM [falling, partial curve] |  |
| CCOC(=O)Cc1cc(-c2ccc(O)cc2)nc2ccc3ccccc3c12 | -7.68% | 18.4 µM [falling, single point] |  |
| Cc1ccc(C)c(S(=O)(=O)N2CCCC2CNC(=O)C(=O)NCc2ccco2)c1 (centres undefined) | 83.9% |  |  |
| O=C(O)C1C2C=CC(C2)C1C(=O)OC1CC2CCC1C2 (centres undefined) | -12.2% | 3.66 µM [falling, partial curve] |  |
| N#C/C(=C\c1cccnc1)C(=O)NC1CCCCC1 |  | 3.66 µM [falling, partial curve] |  |
| COC(=O)CCCC1=CC2=C(c3ccccc3)C(=O)C(C)(OC(=O)C3CCCC3)C(=O)C2=CN1c1ccccc1 (centres undefined) | -24% | 14.6 µM [falling, partial curve, poor fit] |  |
| NC(N)=NN=C1CCC(c2ccccc2)CC1 (centres undefined) | 17.1% | 1.16 µM [rising, single point] |  |
| COc1cc2c(cc1OC)CN(C(C)C(=O)Nc1ccc(NC(C)=O)cc1)CC2 (centres undefined) | -48.8% |  | 10.3 µM [falling, partial curve] |
| CC1(C)C2CCC(C2)C1(C)N=C1OC(CCl)CS1 (centres undefined) | -29.1% | 29.1 µM [falling, single point] |  |
| CC1(C)CC(=O)C(C(O)c2ccc([N+](=O)[O-])cc2)C(C)(C)N1 (centres undefined) | 2.78% |  | 0.651 µM [rising, single point] |
| COc1ccc(C(=O)c2c(O)cc(-c3ccc(OC)cc3)oc2=O)cc1 |  | 0.651 µM [falling, single point] | 1.03 µM [falling, partial curve] |
| COc1cc(NC(=S)N2c3ccccc3CC2C)cc(OC)c1 (centres undefined) | 13.6% | 0.651 µM [rising, partial curve, poor fit] |  |
| Cc1ccc(/C=C/C(=O)NCc2ccco2)o1 | 5.91% | 0.731 µM [rising, single point] |  |
| Cc1ccccc1N1CCN(C(=O)CN2C(=O)c3ccccc3C2=O)CC1 | 10.6% |  |  |

| Structure (SMILES) | cell number change | AC50 [1] | AC50 [2] |
| --- | --- | --- | --- |
| CCOC(=O)c1c(-c2ccc(C)cc2)csc1/N=C/N(C)C | -4.78% | 6.51 µM [falling, single point] |  |
| Cc1c([N+](=O)[O-])cc(C(=O)Nc2ccc(NC(=O)c3ccco3)cc2)cc1[N+](=O)[O-] | 10.8% |  |  |
| O=C(Nc1cccnc1)c1ccc(COc2ccccc2Br)o1 |  | 0.116 µM [falling, full curve, poor fit] |  |
| O=C(Nc1cccnc1)c1cc2cc(Br)ccc2o1 | 4.74% |  |  |
| Cn1nc(C(=O)Nc2cccc(Cl)c2)cc1C(=O)Nc1cccc(Cl)c1 | 39.4% |  | 29.1 µM [rising, single point] |
| O=C(NCCc1ccccc1)Oc1ccc(Cl)cc1 | 1.23% | 7.31 µM [rising, partial curve, poor fit] |  |
| c1ccc(OCCOCCN2CCN(C(c3ccccc3)c3ccccc3)CC2)cc1 | -58.2% | 29.1 µM [falling, single point] | 29.1 µM [falling, single point] |
| COc1ccc2[nH]c(C)c(CCN(Cc3cccs3)C(=S)Nc3ccccc3)c2c1 |  | 0.13 µM [rising, full curve, poor fit] | 0.092 µM [rising, full curve] |
| O=C(NCC(=O)N1CC=C(c2ccccc2)CC1)c1ccco1 | -41.1% | 6.51 µM [rising, single point] | 0.13 µM [falling, full curve, poor fit] |
| C=CCn1c(SCC(=O)NC2CC2)nnc1-c1ccccn1 | -22.1% | 23.1 µM [rising, single point] |  |
| O=C(COC(=O)c1cnc(Cl)c(Cl)c1)NCCC1=CCCCC1 | -26.8% |  |  |
| COc1ccc(OC)c(S(=O)(=O)N2CCC3(CC2)CC(=O)c2ccccc2O3)c1 | -12% | 11.6 µM [falling, partial curve] |  |
| COc1ccc(CC(=O)OCC(=O)c2c[nH]c3ccccc23)cc1 | -7.09% | 6.51 µM [rising, full curve] |  |
| CCOCCCNC(=O)CN1CCN(c2ccc(F)cc2)CC1 | 4.08% |  |  |
| COc1ccc(C(=O)COC(=O)c2cc3ccccc3oc2=O)c(OC)c1 | -12.1% | 0.58 µM [falling, full curve] |  |
| O=S(=O)(NC1=NCCCCC1)c1cccs1 | -1.17% |  |  |
| O=C(CSc1ccccc1)OCC(=O)N1CCN(C(=O)c2ccco2)CC1 | 7.21% | 4.61 µM [falling, single point] | 4.11 µM [falling, single point] |
| Cc1cc(F)ccc1NC(=O)c1cc(S(=O)(=O)N2CCc3ccccc32)cn1C | 15.6% | 4.61 µM [rising, full curve, poor fit] |  |
| CCCCCOc1ccc(/C(C)=N/NC2=NCCN2)cc1 | 1.1% |  |  |
| c1ccc2c(c1)CCOC2CNCCCN1CCCCC1 (centres undefined) | 0.261% | 0.461 µM [falling, single point] |  |
| CCCn1c(=O)c(C(=O)NCc2cccnc2)c(O)c2ccccc21 | 38.6% |  | 1.64 µM [rising, full curve, poor fit] |

Two records picked at random from those above, as already listed:

| Structure (SMILES) | cell number change | AC50 [1] | AC50 [2] |
| --- | --- | --- | --- |
| COc1ccccc1/C=C(/C(=O)OCC(N)=O)c1ccccc1 | 40.7% | 29.1 µM [rising, single point] | 32.6 µM [rising, single point] |
| COc1ccc(C(=O)c2ccc(Cl)cc2)cc1 | 15.5% |  |  |
